# In PubChem BioAssay AID2685 (National Center for Advancing Translational Sciences (NCATS), 2010):
# The list shows a part of the results. These are further read-outs of the screen, such as a control signal, another cell line or another target. No call is given for them. Most of these compounds were active or inconclusive in the main read-out, so they are no random draw. The note in brackets gives the kind of curve behind each potency; many fits are weak.
# Experiment: qHTS Assay for Lipid Storage Modulators in Drosophila S3 Cells;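 on cell number change: cells counted by Cell Tracker Red CMTPX staining in the red channel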
# Conditions: BODIPY lipid droplet fluorescence, 18-24 h; for cell number change: measured here: cell count max response, cells fed with added oleic acid
# Method in brief: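 Laser-scanning cytometry quantifies lipid droplet accumulation (500–530 nm total intensity; droplet/cell object ratio) in oleic acid-fed (400 uM added) Drosophila S3 cells treated with a concentration series. 20 uM Triacsin C defined 100% inhibition.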
# [1] = measured here: cell number channel AC50, cells fed with added oleic acid
# [2] = measured here: lipid fluorescence (Fed channel) AC50, cells fed with added oleic acid
SMILES,cell number change [%],AC50 [1],AC50 [2]
O=C(Nc1nnc(-c2cccs2)o1)c1cccc(C(F)(F)F)c1,-67.1,"29.1 µM [falling, single point]","0.0259 µM [falling, full curve]"
Cc1cn(C2OC[C@@H](O)[C@@H]2CO)c(=O)[nH]c1=O (stereo partly drawn),-15.3,,"29.1 µM [falling, single point]"
O=C(Nc1ccc(S(=O)(=O)Nc2nccs2)cc1)c1ccc(=O)[nH]c1,-1.91,,"2.06 µM [falling, partial curve, poor fit]"
CC(C)(C)c1nnc(N/N=C/c2ccccc2O)n(N)c1=O,-25.6,,"20.6 µM [falling, single point]"
COc1ccc(CC(=O)N(C)CC(=O)Nc2c(C)cccc2C)cc1S(=O)(=O)N1CCOCC1,-22.9,"1.46 µM [falling, full curve, poor fit]",
CCc1ccc(NC(=O)CSCCN2C(=O)c3ccccc3C2=O)cc1,-7.38,"6.51 µM [rising, single point]",
COc1ccc(S(=O)(=O)N2CCC(O)(c3ccc4c(c3)OCO4)CC2)cc1,97.1,"13 µM [rising, partial curve]","14.6 µM [rising, partial curve]"
COc1ccc(OC)c(/C=C2\S/C(=N/NC(=O)c3ccc4ccccc4c3)NC2=O)c1,-18.1,"2.06 µM [falling, partial curve, poor fit]",
CN(CC(=O)Nc1ccccc1F)CC(=O)Nc1ccc(F)c(F)c1F,-0.82,,"29.1 µM [rising, single point]"
CC1CCN(S(=O)(=O)c2ccc3c(c2)c(=O)c(C(=O)NCc2cccs2)cn3C)CC1,22.4,,"6.51 µM [rising, single point]"
COC(=O)c1oc2ccc(Br)cc2c1NC(=O)c1ccccc1,-44.9,"10.3 µM [falling, partial curve]",
O=C(Cc1ccc(-c2ccccc2)cc1)OCC(=O)N1CCCC1=O,22.4,,
CCN(CC)CCN1C(=O)C2C(C(=O)Nc3cc(C)cc(C)c3)C3C=CC2(O3)C1C(=O)NC1CCCCC1 (stereo not drawn),,,"0.103 µM [falling, full curve, poor fit]"
Cc1cc(N(C)C)c(C#N)c(N2CCCCC2)n1,1.84,,
CCn1c(=O)cc(OCC(=O)N2CCc3ccccc32)c2ccccc21,6.07,,"9.2 µM [rising, partial curve]"
CC(C)OCCCn1c(=S)[nH]c2cc3c(cc2c1=O)OCO3,-21.7,,"29.1 µM [falling, single point]"
CCOc1ccc2nc(Nc3nc(CSc4nnnn4-c4ccccc4)cc(=O)[nH]3)nc(C)c2c1,20.3,,"0.164 µM [rising, full curve, poor fit]"
CCOC(=O)C1(CCCc2ccccc2)CCN(C(=O)Cn2nc(C)nc2C)CC1,-11,,"3.66 µM [falling, full curve, poor fit]"
CCn1c(SCc2nc(-c3cccs3)no2)nnc1-c1c[nH]c2ccccc12,,"2.91 µM [rising, single point]","3.66 µM [rising, partial curve]"
CCCNCc1cc(OC)c(OCC(=O)Nc2ccccc2)cc1Br,30.8,,"20.6 µM [rising, partial curve]"

SMILES,cell number change [%],AC50 [1],AC50 [2]
CCN(c1ccccc1)S(=O)(=O)c1ccc(Cl)c(C(=O)NCc2ccco2)c1,1.64,,"7.31 µM [falling, single point]"
CC(=O)c1cccc(CN2CCCC(C(=O)Nc3cccc(-n4cccn4)c3)C2)c1 (stereo not drawn),-24.4,,
Cc1cccn2c(=O)nc(SCC(=O)c3ccccc3)nc12,30.9,"0.0731 µM [rising, full curve]","0.092 µM [rising, full curve]"
CC(=O)Nc1ccc(Cc2nc3c([nH]2)c(=O)n(C)c(=O)n3C)cc1,31.1,"16.4 µM [rising, partial curve, poor fit]",
CCC(C(=O)OCn1nnc2ccccc2c1=O)c1ccccc1 (stereo not drawn),-22,,"29.1 µM [falling, single point]"
COc1ccc2[nH]cc(CCNC(=O)COc3ccc4ccc(=O)oc4c3)c2c1,6.98,,"0.411 µM [falling, partial curve, poor fit]"
[S-]C(=Nc1ccc(Cl)cc1)N[n+]1ccccc1,35.2,"29.1 µM [rising, single point]","1.3 µM [rising, full curve, poor fit]"
O=C(O)c1ccccc1COc1ccccc1Cl,-17.8,,
CCCOP(=O)(c1ccc(N(C)C)cc1)C(Nc1ccccc1)c1ccc(C)cc1 (stereo not drawn),-9.76,,"0.82 µM [rising, full curve, poor fit]"
O=C(c1cccnc1)N1CCC(Oc2ccc(C(=O)N3CCCCO3)cc2)CC1,5.73,,"0.291 µM [falling, single point]"
CC(C)CN1CCC(=O)N([C@H](CN=[N+]=[N-])Cc2ccccc2)CC1,25.2,"0.0651 µM [rising, full curve, poor fit]","29.1 µM [rising, single point]"
O=C1C(NS(=O)(=O)c2ccc(Br)cc2)=C(N2CCCCC2)C(=O)c2ccccc21,-2.67,"3.66 µM [falling, single point]","6.51 µM [falling, single point]"
O=C(CSc1nc2ccccc2[nH]1)N/N=C/C=C\c1ccccc1[N+](=O)[O-],11.9,,"7.31 µM [rising, partial curve]"
N=C1C(c2ccccc2)=C(O)CN1c1cccc(S(=O)(=O)N2CCCCC2)c1,-11.7,,
CCOC(=O)c1csc(Nc2nc3ccc(F)cc3s2)n1,-13.7,,"32.6 µM [falling, single point]"
COCCn1c(C)cc(C(=O)CSc2nc3ccccc3c(=O)n2Cc2ccco2)c1C,14,,"18.4 µM [rising, single point]"
CC1(C)C2CC=C(/C=N/NC(=O)c3ccc(Cl)cc3)C1C2 (stereo not drawn),-21.7,,"6.51 µM [falling, partial curve, poor fit]"
CCOc1cc(/C=N/O)ccc1OS(=O)(=O)c1ccc(C)cc1,-6.14,"6.51 µM [rising, single point]",
Cc1ccc(S(=O)(=O)NCC(=O)OCC(=O)c2cc(C)n(-c3ccccc3)c2C)cc1,-21.9,,"3.66 µM [falling, full curve]"
O=C(O)c1cc(N2C(=O)C3CC=CCC3C2=O)ccc1NCc1cccnc1 (stereo not drawn),-1.75,,"0.0058 µM [falling, full curve, poor fit]"

SMILES,cell number change [%],AC50 [1],AC50 [2]
O=C(Cn1ccc(NC(=O)OCc2ccccc2)nc1=O)NCc1ccc2[nH]ccc2c1,-15.3,"0.291 µM [falling, partial curve, poor fit]","0.259 µM [falling, full curve, poor fit]"
CCCCCNC(=O)C(C)Sc1ccc(Cl)cc1 (stereo not drawn),,,"2.91 µM [falling, single point]"
CC(C)CN1C(=O)C(=O)N(CC(=O)N2c3ccccc3NC(=O)CC2C)C1=O (stereo not drawn),-15.9,,"7.31 µM [rising, partial curve, poor fit]"
COc1ccc2[nH]c3c(c2c1)CCN1C(=O)N([C@@H](C)C(=O)NCc2ccco2)C(=O)[C@]31C,-15.9,,"18.4 µM [falling, single point]"
CCn1c(CSc2ncn[nH]2)nc2cc(C(=O)O)ccc21,28.9,,
COc1cc(/C=C(\C#N)C(=O)NC2CCCCC2C)ccc1OS(=O)(=O)c1ccc(C)cc1 (stereo not drawn),-47.9,"8.2 µM [falling, partial curve]","5.17 µM [falling, partial curve]"
CCOc1ccccc1NC(=O)C1CCCN(S(=O)(=O)c2cccc3cccnc23)C1 (stereo not drawn),7.49,,"6.51 µM [rising, single point]"
CSCCC(NC(=O)COc1ccccc1)C(=O)O (stereo not drawn),10.6,,
COc1cc([N+](=O)[O-])cc(/C=N/NC(=O)c2cc(-c3ccccc3)nc3ccccc23)c1O,-4.44,,"1.46 µM [falling, partial curve]"
COc1ccccc1OCc1ccc(C(=O)Nc2ccccc2F)cc1,-24.4,,"23.1 µM [falling, single point]"
Cn1ncc2c(=O)[nH]cnc21,-35.3,,
Cn1c2ccccc2c2cnn(CC(=O)N3CCCCC3)c(=O)c21,47.4,"0.517 µM [rising, full curve]","23.1 µM [rising, single point]"
NC(=O)CCCC1=NS(=O)(=O)c2ccccc2N1,-19.5,"6.51 µM [falling, single point]",
CCn1c(CSc2nc3ccccc3s2)nnc1SCC(=O)c1ccc2c(c1)OCCO2,-14.3,,"6.51 µM [rising, single point]"
Cc1cnc(C(=O)OC(C)C(=O)Nc2ccccc2-c2ccccc2)cn1 (stereo not drawn),33.1,"29.1 µM [rising, single point]",
COc1ccc(C(=O)COC(=O)CN2C(=O)C3C4C=CC(C5CC45)C3C2=O)cc1 (stereo not drawn),16.7,"2.06 µM [rising, single point]","23.1 µM [rising, single point]"
C=CCn1c(SCc2cc(=O)n3cc(C)ccc3n2)nnc1-c1cccc(C)c1,-30.3,"18.4 µM [falling, single point]","7.31 µM [falling, partial curve]"
CC(C)(C)C1CCc2c(C(=O)NNC(=O)CCCC(=O)O)csc2C1 (stereo not drawn),7.83,"0.58 µM [falling, single point]","0.731 µM [falling, single point]"

# Rewritten tab-delimited: four of the compounds above.
SMILES	cell number change [%]	AC50 [1]	AC50 [2]
COc1ccccc1OCc1ccc(C(=O)Nc2ccccc2F)cc1	-24.4		23.1 µM [falling, single point]
Cn1ncc2c(=O)[nH]cnc21	-35.3		
Cn1c2ccccc2c2cnn(CC(=O)N3CCCCC3)c(=O)c21	47.4	0.517 µM [rising, full curve]	23.1 µM [rising, single point]
NC(=O)CCCC1=NS(=O)(=O)c2ccccc2N1	-19.5	6.51 µM [falling, single point]	
